The supplement of paper PMC10849652
This is one part of the list. Residues, ends and D or L forms follow the SMILES beside them. *: point of attachment. Cbz = O=C(OCc1ccccc1)*

The chains behind the UniProt entries cited, without tags or fusion partners. Where a name states a change or a piece, a line headed by the entry shows the natural chain unless it says otherwise.
UniProt Q9NP81: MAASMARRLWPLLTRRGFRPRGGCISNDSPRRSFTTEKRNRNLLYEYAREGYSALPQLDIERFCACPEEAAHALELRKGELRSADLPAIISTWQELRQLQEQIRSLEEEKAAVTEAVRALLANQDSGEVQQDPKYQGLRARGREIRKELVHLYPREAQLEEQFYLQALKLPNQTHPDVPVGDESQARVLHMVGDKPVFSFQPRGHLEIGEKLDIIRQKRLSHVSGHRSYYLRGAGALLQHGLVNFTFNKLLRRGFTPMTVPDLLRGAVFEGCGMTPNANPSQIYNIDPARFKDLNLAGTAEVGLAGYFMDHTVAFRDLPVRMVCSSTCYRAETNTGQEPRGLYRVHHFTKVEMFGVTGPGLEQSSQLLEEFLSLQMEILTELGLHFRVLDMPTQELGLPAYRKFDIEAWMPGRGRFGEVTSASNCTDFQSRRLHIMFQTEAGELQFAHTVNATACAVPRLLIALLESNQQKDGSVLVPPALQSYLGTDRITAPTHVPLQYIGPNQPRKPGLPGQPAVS

Key:
Test in all cases: log2 fold change, soluble protein after heating vs DMSO (PISA); higher = thermal stabilisation; K562 cells, 10 uM, 30 min; active = over 0.2 and 3.5 SD of the protein, either way, in both replicates (recomputed)
erlotinib = compound: C#Cc1cccc(Nc2ncnc3cc(OCCOC)c(OCCOC)cc23)c1 [erlotinib]
How it was run: (§1)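 Thermal stability values are relative to control samples and come from duplicates. They are expressed as log2 fold changes. For measurement, K562 cells (2×10^6 cells/mL) received 10 μM compound for 30 min, and aliquots were heated for 3 min over 48°C-58°C, pooled, and extracted at 4°C in PBS with 0.5% NP-40. Soluble protein, the supernatant after 21,000xg for 90 min, was quantified by TMTpro 16plex LC-MS/MS with equalised channel sums.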

[1] = compound: C/C(=N\NC(=O)C1=CC(=CC=C1)S(=O)(=O)N2CCOCC2)/C3=C(C=CC(=C3)Cl)O
How it was run: as §1

[2] = compound: C1=CC(=C(C=C1Cl)C2=NC3=NC=CN=C3C(=N2)NC4=CC=NC=C4)F
How it was run: as §1

[3] = compound: C1=CC(=CC=C1C2=NC3=C(N2)C=C(C=C3)C(=O)N)OC4=CC=C(C=C4)Cl
How it was run: as §1

[4] = compound: C1=CC2=C(C=CC(=C2)/C=C\3/C(=O)NC(=NCC4=CC=CS4)S3)N=C1
How it was run: as §1

[5] = compound: C1=CC2=NC=CN=C2C=C1/C=C/3\C(=O)NC(=O)S3
How it was run: as §1

[6] = compound: C1=CC=C(C=C1)C2=NC(=C(N2)C3=CC=NC=C3)C4=CC(=C(C=C4)Cl)O
How it was run: as §1

[7] = compound: C1=CC=C(C=C1)[C@H](COC2=CC3=C(C=C2)NC(=O)N3)NC(=O)C4=CC=CN(C4=O)CC5=CC(=C(C=C5)F)F
How it was run: as §1

[8] = compound: C1=CC=C2C(=C1)C3=NNC4=CC=CC(=C43)C2=O
How it was run: as §1

[9] = compound: C1CCN(C1)C(=O)NC2=CC=CC(=C2)NC3=NC=C(C(=N3)NCCC4=CN=CN4)Br
How it was run: as §1

[10] = compound: C1CN(CCC1(CC2=CC=C(C=C2)Cl)N)C3=NC=NC4=C3C=CN4
How it was run: as §1

IRAK-1-4 Inhibitor I = compound: C1COCCN1CCN2C3=CC=CC=C3N=C2NC(=O)C4=CC(=CC=C4)[N+](=O)[O-] [IRAK-1-4 Inhibitor I]
How it was run: as §1

ibrutinib = compound: C=CC(=O)N1CCC[C@@H](n2nc(-c3ccc(Oc4ccccc4)cc3)c3c(N)ncnc32)C1 [ibrutinib]
How it was run: as §1

[11] = compound: CC(=O)c1cnc2ccc(-c3cc(Cl)c(O)c(Cl)c3)nc2c1N[C@H]1CC[C@H](CN(C)C)CC1
How it was run: as §1

ralimetinib = compound: CC(C)(C)Cn1c(N)nc2ccc(-c3[nH]c(C(C)(C)C)nc3-c3ccc(F)cc3)nc21 [ralimetinib]
How it was run: as §1

[12] = compound: CC(C)(O)CC(=O)NCCn1ccc2ncnc(Nc3ccc(Oc4cccc(C(F)(F)F)c4)c(Cl)c3)c21
How it was run: as §1

[13] = compound: CC(C)C1=C2N=C(C=C(N2N=C1)NCC3=CC=CC=C3)NCCCCCCN
How it was run: as §1

[14] = compound: CC(C)C[C@@H](C=O)NC(=O)[C@H](CC(C)C)NC(=O)[C@H](CC(C)C)NC(=O)OCc1ccccc1
How it was run: as §1

pinometostat = compound: CC(C)N(C[C@H]1O[C@@H](n2cnc3c(N)ncnc32)[C@H](O)[C@@H]1O)[C@H]1C[C@@H](CCc2nc3cc(C(C)(C)C)ccc3[nH]2)C1 [pinometostat]
How it was run: as §1

[15] = compound: CC1=C(C(CC(=O)N1)C2=CC=C(C=C2)C(F)(F)F)C(=O)NC3=C(C=C4C(=C3)C=NN4)F
How it was run: as §1

[16] = compound: CC1=C(C2=C(C=C1)C(=O)C3=CC=CC=C3N2CCCN)C
How it was run: as §1

[17] = compound: CC1=C(C=C(C=C1)NC(=O)C2=CC(=CC=C2)C(C)(C)C#N)NC3=CC4=C(C=C3)N=CN(C4=O)C
How it was run: as §1

[18] = compound: CC1=C(C=C(C=C1)NC(=O)C2=CC(=CC=C2)N(C)C)NC(=O)C3=CC=C(C=C3)O
How it was run: as §1

[19] = compound: CC1=C(SC2=C1C(=N[C@H](C3=NN=C(N32)C)CC(=O)N)C4=CC=C(C=C4)Cl)C
How it was run: as §1

[20] = compound: CC1=C2C(=CC=C1)N=C(N(C2=O)C3=CC=CC=C3C)CN4C=NC5=C(N=CN=C54)N
How it was run: as §1

[21] = compound: CC1=CC=C(C=C1)SC2=C3C=C(SC3=CN=C2)C(=O)N
How it was run: as §1

[22] = compound: CC1=NC(=CC=C1)C2=C(N=C(N2)C(C)(C)C)C3=CC4=NC=CN=C4C=C3
How it was run: as §1

Nexturastat A = compound: CCCCN(Cc1ccc(C(=O)NO)cc1)C(=O)Nc1ccccc1 [Nexturastat A]
How it was run: as §1

vemurafenib = compound: CCCS(=O)(=O)Nc1ccc(F)c(C(=O)c2c[nH]c3ncc(-c4ccc(Cl)cc4)cc23)c1F [vemurafenib]
How it was run: as §1

[23] = compound: CCCS(=O)(=O)Nc1ccc(F)c(C(=O)c2c[nH]c3ncc(Cl)cc23)c1F
How it was run: as §1

[24] = compound: CCCc1cc(C)[nH]c(=O)c1CNC(=O)c1cc(-c2ccnc(N3CCN(C)CC3)c2)cc2c1cnn2C(C)C
How it was run: as §1

givinostat = compound: CCN(CC)Cc1ccc2cc(COC(=O)Nc3ccc(C(=O)NO)cc3)ccc2c1 [givinostat]
How it was run: as §1

barasertib = compound: CCN(CCCOc1ccc2c(Nc3cc(CC(=O)Nc4cccc(F)c4)[nH]n3)ncnc2c1)CCOP(=O)(O)O [barasertib]
How it was run: as §1

[25] = compound: CC[C@@H]1C(=O)N(C)c2cnc(Nc3ccc(C(=O)NC4CCN(C)CC4)cc3OC)nc2N1C1CCCC1
How it was run: as §1

volasertib = compound: CC[C@@H]1C(=O)N(C)c2cnc(Nc3ccc(C(=O)N[C@H]4CC[C@H](N5CCN(CC6CC6)CC5)CC4)cc3OC)nc2N1C(C)C [volasertib]
How it was run: as §1

[26] = compound: CC[C@H](C)N1C=C(C2=C(C=C(C=C21)C3=CN=C(C=C3)N4CCNCC4)C(=O)NCC5=C(C=C(NC5=O)C)C)C
How it was run: as §1

epoxomicin = compound: CC[C@H](C)[C@@H](C(=O)N[C@@H]([C@@H](C)O)C(=O)N[C@@H](CC(C)C)C(=O)[C@]1(CO1)C)NC(=O)[C@H]([C@@H](C)CC)N(C)C(=O)C [epoxomicin]
How it was run: as §1

[27] = compound: CCn1c(C(=O)N(C2CC2)C2CC2)cc2c3c(ncn3C)c(Nc3cc(C)n(C)n3)nc21
How it was run: as §1

[28] = compound: CCn1cc(-c2ccnc3[nH]c(-c4cccc(CN(C)C)c4)cc23)c(-c2ccc(NC(=O)N(C)C)cc2)n1
How it was run: as §1

[29] = compound: CN(C)CC(=O)Nc1ccc2[nH]c(=O)c3ccccc3c2c1
How it was run: as §1

rosiglitazone = compound: CN(CCOC1=CC=C(C=C1)C[C@H]2C(=O)NC(=O)S2)C3=CC=CC=N3 (racemic) [rosiglitazone]
How it was run: as §1

[30] = compound: CN1C2=C(C3=C1C(=O)N(N=C3)CC4=CC(=CC=C4)N)SC(=C2)S(=O)C
How it was run: as §1

[31] = compound: CN1CCC(CNc2ccc3ncc(-c4cccc(OC(F)(F)F)c4)n3n2)CC1
How it was run: as §1

saracatinib = compound: CN1CCN(CCOc2cc(OC3CCOCC3)c3c(Nc4c(Cl)ccc5c4OCO5)ncnc3c2)CC1 [saracatinib]
How it was run: as §1

sotrastaurin = compound: CN1CCN(c2nc(C3=C(c4c[nH]c5ccccc45)C(=O)NC3=O)c3ccccc3n2)CC1 [sotrastaurin]
How it was run: as §1

alvocidib = compound: CN1CC[C@H](c2c(O)cc(O)c3c(=O)cc(-c4ccccc4Cl)oc23)[C@H](O)C1 [alvocidib]
How it was run: as §1

Tubastatin A = compound: CN1CCc2c(c3ccccc3n2Cc2ccc(C(=O)NO)cc2)C1 [Tubastatin A]
How it was run: as §1

[32] = compound: CNC(=O)C1=CC=CC=C1NC2=NC(=NC=C2Cl)NC3=C(C=C(C=C3)N4CCOCC4)OC
How it was run: as §1

Measured: log2 fold change

SARS2 (UniProt Q9NP81)
inactive: erlotinib 0.027 | [1] 0.036 | [2] 0.022 | [3] 0 | [4] -0.03 | [5] 0.014 | [6] -0.001 | [7] 0.009 | [8] 0.022 | [9] 0.009 | [10] 0 | IRAK-1-4 Inhibitor I 0.013 | ibrutinib 0.018 | [11] -0.007 | ralimetinib 0.004 | [12] -0.019 | [13] -0.036 | [14] -0.008 | pinometostat -0.071 | [15] -0.006 | [16] -0.009 | [17] -0.012 | [18] 0.031 | [19] 0.024 | [20] 0.022 | [21] 0.013 | [22] 0.052 | Nexturastat A -0.045 | vemurafenib 0.005 | [23] 0.02 | [24] -0.012 | givinostat 0.012 | barasertib -0.013 | [25] 0.006 | volasertib -0.007 | [26] 0.009 | epoxomicin -0.008 | [27] 0.009 | [28] 0 | [29] -0.009 | rosiglitazone 0.008 | [30] -0.04 | [31] -0.024 | saracatinib 0.023 | sotrastaurin 0.005 | alvocidib -0.063 | Tubastatin A -0.016 | [32] -0.01
